Laboratory results as given in the supplement of paper PMC6411743.
± gives the standard deviation of the averaged measurements. This is a selection; strong and weak results do not stand in their true shares. Small differences around the control level are noise.

By UniProt entry, the sequences of proteins in these tests, tags left out. Where a name states a change or a piece, a line headed by the entry shows the natural chain unless it says otherwise.
UniProt Q92562: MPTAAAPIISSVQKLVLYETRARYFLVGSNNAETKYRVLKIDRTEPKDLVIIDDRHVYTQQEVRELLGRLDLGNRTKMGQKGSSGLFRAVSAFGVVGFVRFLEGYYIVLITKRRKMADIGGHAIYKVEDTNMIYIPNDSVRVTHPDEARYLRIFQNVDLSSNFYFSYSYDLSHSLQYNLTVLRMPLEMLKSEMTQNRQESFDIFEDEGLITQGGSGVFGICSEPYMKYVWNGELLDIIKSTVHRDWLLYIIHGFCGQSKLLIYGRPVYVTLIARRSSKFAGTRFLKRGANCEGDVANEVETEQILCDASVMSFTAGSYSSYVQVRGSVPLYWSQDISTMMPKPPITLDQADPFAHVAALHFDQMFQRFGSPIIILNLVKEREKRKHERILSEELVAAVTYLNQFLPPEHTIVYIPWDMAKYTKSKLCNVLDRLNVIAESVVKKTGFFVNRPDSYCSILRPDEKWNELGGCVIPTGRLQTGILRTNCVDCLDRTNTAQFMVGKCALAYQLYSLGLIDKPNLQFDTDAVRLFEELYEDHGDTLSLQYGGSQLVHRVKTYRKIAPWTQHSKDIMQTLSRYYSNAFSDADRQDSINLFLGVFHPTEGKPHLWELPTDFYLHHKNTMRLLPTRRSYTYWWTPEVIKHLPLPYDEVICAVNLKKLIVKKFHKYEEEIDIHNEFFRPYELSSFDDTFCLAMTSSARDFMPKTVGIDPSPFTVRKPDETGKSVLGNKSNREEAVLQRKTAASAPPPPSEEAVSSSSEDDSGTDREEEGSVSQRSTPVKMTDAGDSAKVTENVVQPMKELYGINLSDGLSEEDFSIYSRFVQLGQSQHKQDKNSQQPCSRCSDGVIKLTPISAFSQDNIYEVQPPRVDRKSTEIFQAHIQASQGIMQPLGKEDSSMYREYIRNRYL
UniProt Q96A33: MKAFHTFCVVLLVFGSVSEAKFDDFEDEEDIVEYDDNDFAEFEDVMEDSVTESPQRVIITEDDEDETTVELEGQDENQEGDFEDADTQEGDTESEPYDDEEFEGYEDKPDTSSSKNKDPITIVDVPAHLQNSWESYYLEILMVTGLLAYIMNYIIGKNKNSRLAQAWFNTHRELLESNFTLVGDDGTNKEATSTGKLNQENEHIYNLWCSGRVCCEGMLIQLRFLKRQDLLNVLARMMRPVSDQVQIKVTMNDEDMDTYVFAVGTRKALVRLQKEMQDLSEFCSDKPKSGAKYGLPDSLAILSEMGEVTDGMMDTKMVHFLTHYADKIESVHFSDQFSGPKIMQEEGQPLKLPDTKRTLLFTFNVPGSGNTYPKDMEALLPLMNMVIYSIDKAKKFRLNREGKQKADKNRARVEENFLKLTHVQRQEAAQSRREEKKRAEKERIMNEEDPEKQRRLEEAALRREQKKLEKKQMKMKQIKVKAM
UniProt Q92600, whole entry: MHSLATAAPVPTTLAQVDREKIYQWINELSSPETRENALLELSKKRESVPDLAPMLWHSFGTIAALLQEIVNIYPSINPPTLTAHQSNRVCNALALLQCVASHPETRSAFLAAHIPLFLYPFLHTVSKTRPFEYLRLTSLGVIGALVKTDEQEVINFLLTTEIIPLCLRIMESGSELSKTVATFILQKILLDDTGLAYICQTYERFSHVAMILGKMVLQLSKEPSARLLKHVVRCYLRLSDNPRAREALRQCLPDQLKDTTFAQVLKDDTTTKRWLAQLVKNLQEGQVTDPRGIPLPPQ
UniProt Q96A57: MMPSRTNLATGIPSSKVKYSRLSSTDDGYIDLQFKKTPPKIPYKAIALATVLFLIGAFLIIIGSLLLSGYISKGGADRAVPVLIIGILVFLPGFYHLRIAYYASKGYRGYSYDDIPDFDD
UniProt Q8TBC4: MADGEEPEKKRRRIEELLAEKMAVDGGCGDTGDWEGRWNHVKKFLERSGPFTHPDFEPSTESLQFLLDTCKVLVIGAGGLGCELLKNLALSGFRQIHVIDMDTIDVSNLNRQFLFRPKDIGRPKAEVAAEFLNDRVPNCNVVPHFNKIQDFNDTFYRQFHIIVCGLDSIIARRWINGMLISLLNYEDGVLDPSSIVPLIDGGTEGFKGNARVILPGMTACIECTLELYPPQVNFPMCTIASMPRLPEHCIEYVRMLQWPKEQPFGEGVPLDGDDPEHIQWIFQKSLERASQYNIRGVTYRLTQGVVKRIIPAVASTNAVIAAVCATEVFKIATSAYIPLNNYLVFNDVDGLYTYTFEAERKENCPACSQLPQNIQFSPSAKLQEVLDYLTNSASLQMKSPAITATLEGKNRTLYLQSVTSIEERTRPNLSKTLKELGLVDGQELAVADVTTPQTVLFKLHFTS
UniProt Q96B97, whole entry: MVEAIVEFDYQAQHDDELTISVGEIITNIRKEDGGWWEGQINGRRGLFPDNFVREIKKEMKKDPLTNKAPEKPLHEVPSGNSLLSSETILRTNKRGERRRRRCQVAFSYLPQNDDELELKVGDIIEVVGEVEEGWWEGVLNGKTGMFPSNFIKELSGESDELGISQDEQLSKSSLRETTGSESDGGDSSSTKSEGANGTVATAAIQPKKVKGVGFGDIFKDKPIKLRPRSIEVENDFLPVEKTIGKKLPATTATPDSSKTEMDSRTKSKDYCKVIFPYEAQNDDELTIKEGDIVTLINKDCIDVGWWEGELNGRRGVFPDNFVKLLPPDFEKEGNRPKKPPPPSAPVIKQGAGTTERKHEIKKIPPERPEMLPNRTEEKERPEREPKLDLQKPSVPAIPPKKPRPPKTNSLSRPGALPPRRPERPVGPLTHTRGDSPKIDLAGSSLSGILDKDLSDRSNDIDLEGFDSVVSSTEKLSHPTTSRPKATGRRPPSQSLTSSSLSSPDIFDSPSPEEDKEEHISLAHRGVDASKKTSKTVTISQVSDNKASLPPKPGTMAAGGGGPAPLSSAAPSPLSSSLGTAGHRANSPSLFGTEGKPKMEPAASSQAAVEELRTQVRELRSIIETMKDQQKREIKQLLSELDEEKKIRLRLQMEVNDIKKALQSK
UniProt Q92616, whole entry: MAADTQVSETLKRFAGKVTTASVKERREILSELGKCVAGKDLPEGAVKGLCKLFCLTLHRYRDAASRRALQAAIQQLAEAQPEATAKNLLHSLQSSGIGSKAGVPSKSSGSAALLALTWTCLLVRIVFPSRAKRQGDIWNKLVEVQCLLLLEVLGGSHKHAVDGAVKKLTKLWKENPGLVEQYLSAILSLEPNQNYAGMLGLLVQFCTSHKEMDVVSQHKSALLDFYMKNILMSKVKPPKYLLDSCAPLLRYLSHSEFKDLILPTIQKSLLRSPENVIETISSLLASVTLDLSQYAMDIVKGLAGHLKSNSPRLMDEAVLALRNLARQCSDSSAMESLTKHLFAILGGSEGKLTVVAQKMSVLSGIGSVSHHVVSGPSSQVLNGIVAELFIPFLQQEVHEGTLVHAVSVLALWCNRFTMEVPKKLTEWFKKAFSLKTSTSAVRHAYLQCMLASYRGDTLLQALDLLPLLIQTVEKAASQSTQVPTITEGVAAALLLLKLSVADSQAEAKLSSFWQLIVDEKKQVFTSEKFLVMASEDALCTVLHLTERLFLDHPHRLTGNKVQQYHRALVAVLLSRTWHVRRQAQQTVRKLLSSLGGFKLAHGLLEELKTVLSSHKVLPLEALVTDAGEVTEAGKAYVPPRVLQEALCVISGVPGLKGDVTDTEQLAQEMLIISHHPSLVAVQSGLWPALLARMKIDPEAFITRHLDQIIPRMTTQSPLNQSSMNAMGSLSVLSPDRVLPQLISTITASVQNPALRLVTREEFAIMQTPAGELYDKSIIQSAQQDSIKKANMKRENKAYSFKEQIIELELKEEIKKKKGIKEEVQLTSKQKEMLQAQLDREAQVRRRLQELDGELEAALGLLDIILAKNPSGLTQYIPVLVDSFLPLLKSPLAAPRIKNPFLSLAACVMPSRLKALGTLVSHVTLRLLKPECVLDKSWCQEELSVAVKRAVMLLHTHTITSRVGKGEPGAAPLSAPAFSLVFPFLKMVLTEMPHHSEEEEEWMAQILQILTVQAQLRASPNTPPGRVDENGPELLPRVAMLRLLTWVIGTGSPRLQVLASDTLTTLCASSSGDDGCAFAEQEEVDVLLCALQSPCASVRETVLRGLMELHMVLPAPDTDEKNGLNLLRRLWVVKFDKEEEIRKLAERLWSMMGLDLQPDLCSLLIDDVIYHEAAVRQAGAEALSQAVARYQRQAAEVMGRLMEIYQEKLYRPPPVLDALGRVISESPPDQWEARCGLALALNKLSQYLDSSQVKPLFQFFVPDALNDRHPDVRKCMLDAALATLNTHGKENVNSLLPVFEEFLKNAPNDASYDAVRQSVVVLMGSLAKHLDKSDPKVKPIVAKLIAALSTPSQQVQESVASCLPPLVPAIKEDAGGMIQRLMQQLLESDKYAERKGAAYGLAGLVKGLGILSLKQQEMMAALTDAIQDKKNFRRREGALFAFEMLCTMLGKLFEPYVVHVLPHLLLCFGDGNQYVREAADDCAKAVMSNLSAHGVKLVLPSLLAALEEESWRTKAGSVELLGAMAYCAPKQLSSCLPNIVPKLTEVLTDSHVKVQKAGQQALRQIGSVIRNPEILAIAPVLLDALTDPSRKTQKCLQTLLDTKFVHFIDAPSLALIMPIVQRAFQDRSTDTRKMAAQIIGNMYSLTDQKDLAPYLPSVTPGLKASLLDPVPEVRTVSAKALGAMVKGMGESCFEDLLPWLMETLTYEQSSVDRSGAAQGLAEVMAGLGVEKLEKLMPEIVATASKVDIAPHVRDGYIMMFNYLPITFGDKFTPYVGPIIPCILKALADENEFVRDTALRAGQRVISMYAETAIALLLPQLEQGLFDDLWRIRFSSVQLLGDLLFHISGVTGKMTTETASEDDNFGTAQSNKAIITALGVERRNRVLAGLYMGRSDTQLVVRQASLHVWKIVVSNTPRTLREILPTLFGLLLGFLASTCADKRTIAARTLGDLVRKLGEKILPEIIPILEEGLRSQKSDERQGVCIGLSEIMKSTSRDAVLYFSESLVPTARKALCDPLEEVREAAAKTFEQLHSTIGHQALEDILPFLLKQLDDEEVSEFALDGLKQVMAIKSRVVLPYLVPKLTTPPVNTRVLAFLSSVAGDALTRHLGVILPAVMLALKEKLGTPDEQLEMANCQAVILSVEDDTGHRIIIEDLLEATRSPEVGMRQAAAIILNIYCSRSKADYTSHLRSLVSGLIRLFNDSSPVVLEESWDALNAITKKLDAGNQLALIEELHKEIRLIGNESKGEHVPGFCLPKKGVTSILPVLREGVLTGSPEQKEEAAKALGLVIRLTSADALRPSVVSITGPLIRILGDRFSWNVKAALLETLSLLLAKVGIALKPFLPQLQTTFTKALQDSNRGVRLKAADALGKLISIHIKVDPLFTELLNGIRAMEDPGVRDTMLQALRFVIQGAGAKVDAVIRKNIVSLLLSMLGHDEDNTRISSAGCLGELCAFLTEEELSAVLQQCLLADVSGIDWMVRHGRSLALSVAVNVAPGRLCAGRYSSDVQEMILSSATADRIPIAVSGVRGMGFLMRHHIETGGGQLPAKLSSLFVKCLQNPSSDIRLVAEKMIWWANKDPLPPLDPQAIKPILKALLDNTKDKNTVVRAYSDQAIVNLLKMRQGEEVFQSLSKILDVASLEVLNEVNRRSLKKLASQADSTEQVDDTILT
UniProt Q8TD55: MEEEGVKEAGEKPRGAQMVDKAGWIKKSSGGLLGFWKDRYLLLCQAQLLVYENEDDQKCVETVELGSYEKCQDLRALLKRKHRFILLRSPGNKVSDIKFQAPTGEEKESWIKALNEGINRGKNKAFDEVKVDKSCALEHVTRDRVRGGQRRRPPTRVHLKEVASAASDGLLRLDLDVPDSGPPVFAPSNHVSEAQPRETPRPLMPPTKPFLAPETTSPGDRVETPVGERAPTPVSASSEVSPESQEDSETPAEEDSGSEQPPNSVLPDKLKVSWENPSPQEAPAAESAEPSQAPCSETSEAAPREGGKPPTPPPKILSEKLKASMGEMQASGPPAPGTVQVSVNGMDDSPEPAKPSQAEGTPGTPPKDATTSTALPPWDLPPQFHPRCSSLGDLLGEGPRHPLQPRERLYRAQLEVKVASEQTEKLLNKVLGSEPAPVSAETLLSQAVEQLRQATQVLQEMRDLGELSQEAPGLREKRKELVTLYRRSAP
UniProt Q8WUB8: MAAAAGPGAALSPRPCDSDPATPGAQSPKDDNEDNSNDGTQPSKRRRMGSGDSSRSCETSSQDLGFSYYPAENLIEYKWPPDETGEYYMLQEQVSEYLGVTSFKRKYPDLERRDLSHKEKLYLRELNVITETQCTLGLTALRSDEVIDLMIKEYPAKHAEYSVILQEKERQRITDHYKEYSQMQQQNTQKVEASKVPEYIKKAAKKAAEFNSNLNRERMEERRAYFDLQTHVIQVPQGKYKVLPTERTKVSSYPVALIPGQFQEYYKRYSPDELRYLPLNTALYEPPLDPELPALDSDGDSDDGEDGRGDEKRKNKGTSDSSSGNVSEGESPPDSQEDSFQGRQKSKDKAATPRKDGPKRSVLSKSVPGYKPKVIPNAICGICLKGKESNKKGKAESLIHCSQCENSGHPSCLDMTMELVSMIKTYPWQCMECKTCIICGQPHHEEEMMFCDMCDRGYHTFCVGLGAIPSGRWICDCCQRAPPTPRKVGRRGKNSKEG

Compound: Nc1ncnc2c1ncn2[C@@H]1O[C@H](COP(=O)(O)OP(=O)(O)OP(=O)(O)O)[C@@H](O)[C@H]1O [adenosine triphosphate]
Assay: NP40-soluble protein abundance relative to vehicle (solubility fold change) (ratio); higher = more soluble protein in presence of ATP
Method in brief: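 Jurkat crude lysate prepared with a Dounce homogeniser was treated at eight concentrations spanning 0.1 to 10 mM, 10 min at room temperature then 3 min at 37 °C. Solubilisation with 0.8% NP40 and benzonase and ultracentrifugation preceded TMT labelling of the supernatant for LC-MS/MS. Fold change against the detergent-processed vehicle was determined per replicate from vsn-normalised intensities, across three independent experiments.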

Target	NP40-soluble protein abundance (concentration: 0.1mM)	NP40-soluble protein abundance (concentration: 0.5mM)
UniProt Q92851-4	1.22 ± 0.28	1.01 ± 0.088
FIG4 (UniProt Q92562)	1.01 ± 0.19	1.03 ± 0.026
UniProt Q969Y2 and related entries	1.01 ± 0.065	1 ± 0.018
PRPF31 (UniProt Q8WWY3)	1.05 ± 0.037	1.11 ± 0.049
CCDC47 (UniProt Q96A33)	1.03 ± 0.022	1.02 ± 0.04
UniProt Q92600 and related entries	0.831 ± 0.16	0.839 ± 0.2
UniProt Q96A57 and related entries	0.961 ± 0.02	0.846 ± 0.076
HDAC2 (UniProt Q92769)	0.972 ± 0.025	1.01 ± 0.066
MZB1 (UniProt Q8WU39)	0.953 ± 0.06	0.921 ± 0.088
UniProt Q8TCC3 and related entries	0.851 ± 0.18	0.92 ± 0.19
UniProt Q8TBA6 and related entries	0.992 ± 0.018	0.965 ± 0.03
GATAD2B (UniProt Q8WXI9)	0.964 ± 0.058	0.968 ± 0.056
THAP4 (UniProt Q8WY91)	1 ± 0.068	1.06 ± 0.051
COPS5 (UniProt Q92905)	0.994 ± 0.057	1 ± 0.023
UniProt Q96AY2 and related entries	1.09 ± 0.086	0.976 ± 0.015
UniProt Q8TDD1 and related entries	1.04 ± 0.025	1.09 ± 0.037
SMG7 (UniProt Q92540)	0.967 ± 0.07	0.967 ± 0.064
UniProt Q92845 and related entries	1.015 ± 0.0043	1.1 ± 0.13
UniProt Q969E2 and related entries	1.05 ± 0.049	1 ± 0.099
UniProt Q92844 and related entries	0.964 ± 0.043	0.995 ± 0.038
SMARCC1 (UniProt Q92922)	0.965 ± 0.047	1.05 ± 0.1

Target	NP40-soluble protein abundance (concentration: 0.1mM)	NP40-soluble protein abundance (concentration: 0.5mM)
UniProt Q8TBF2-6|A0A0A0MT35|Q8TBF2-8	1 ± 0.033	1.02 ± 0.1
EMG1 (UniProt Q92979)	1.07 ± 0.06	1.07 ± 0.026
UniProt Q8TEX9 and related entries	0.969 ± 0.025	0.942 ± 0.066
UniProt Q92783 and related entries	0.972 ± 0.019	0.975 ± 0.0099
RTN4IP1 (UniProt Q8WWV3)	1.01 ± 0.043	1.05 ± 0.048
UniProt Q93100 and related entries	1.01 ± 0.035	0.981 ± 0.041
UniProt Q8TF01	1.11 ± 0.043	1.28 ± 0.069
UBA3 (UniProt Q8TBC4)	1.02 ± 0.086	1.02 ± 0.075
UniProt Q8TBZ6	1.008 ± 0.01	1.09 ± 0.052
C15orf40 (UniProt Q8WUR7)	0.931 ± 0.033	0.91 ± 0.13
CCDC12 (UniProt Q8WUD4)	0.847 ± 0.17	0.774 ± 0.22
UniProt Q8TCT9 and related entries	1.01 ± 0.028	0.963 ± 0.039
UniProt Q96B97 and related entries	0.992 ± 0.025	0.999 ± 0.059
UniProt Q92616	1.04 ± 0.047	1.05 ± 0.036
PLEKHO2 (UniProt Q8TD55)	0.978 ± 0.045	0.953 ± 0.036
PCNP (UniProt Q8WW12)	0.869 ± 0.056	0.869 ± 0.1
UniProt Q8WUB8 and related entries	1.02 ± 0.064	1.11 ± 0.062
HSD17B8 (UniProt Q92506)	0.98 ± 0.034	0.994 ± 0.049
UniProt Q96BD5 and related entries	0.978 ± 0.058	0.979 ± 0.038
EDEM1 (UniProt Q92611)	1.04 ± 0.088	1 ± 0.038
CASKIN2 (UniProt Q8WXE0)	0.976 ± 0.032	1.01 ± 0.058

Some of the entries so far, as comma-separated lines:
Target,NP40-soluble protein abundance (concentration: 0.1mM),NP40-soluble protein abundance (concentration: 0.5mM)
UniProt Q92851-4,1.22 ± 0.28,1.01 ± 0.088
FIG4 (UniProt Q92562),1.01 ± 0.19,1.03 ± 0.026
